Source: US10563263B2, “Genetic polymorphisms associated with statin response and cardiovascular diseases, methods of detection and uses thereof” (CELERA CORPORATION, priority 2010, dated 2020)
This continues a long series; more values of the same kind are listed elsewhere.

System: CVD (CHD or stroke)
Assay: WOSCOPS: SNP by pravastatin treatment interaction, logistic regression (synergy index), CVD endpoint
Assay type: in vivo, human
Excerpt: CARE was a secondary prevention trial and WOSCOPS was a primary prevention trial.
The CHD endpoint was defined in the analyses herein of CARE as a composite endpoint of fatal CHD, definite non-fatal MI, or revascularization, and was defined in the analyses herein of WOSCOPS as a composite endpoint of death from CHD, nonfatal MI, or revascularization. In both the CARE and WOSCOPS analyses herein, the CVD endpoint was defined as a composite endpoint of CHD or stroke. […] Revascularization, which can include percutaneous transluminal coronary angioplasty (PTCA), stent placement, and coronary artery bypass graft (CABG), are medical interventions that indicate the presence of CHD.
Cohort and case-only study designs were used to identify SNPs associated with response to statin treatment.
For each SNP, a logistic regression model having treatment status as the dependent variable and SNP as the independent predictor variable was performed, with terms for age, sex and race included in the model as covariates. The anti-log of the regression coefficient corresponding to the SNP is an estimate of the synergy index (SI) (Davis et al., “Imputing gene-treatment interactions when the genotype distribution is unknown using case-only and putative placebo analyses-a new method for the Genetics of Hypertension Associated Treatment (GenHAT) study”, Statistics in Medicine 23: (2004), pages 2413-2427). The SI is a ratio of odds ratios: for example in the CARE and WOSCOPS studies, the SI represents the factor by which the odds-ratio of statin treatment, compared with placebo, among major homozygous individuals is multiplied by in order to obtain the odds-ratio of treatment vs. placebo among heterozygous individuals; and multiplied by a second time to obtain the odds-ratio of treatment vs. placebo in minor homozygous individuals. […] In a randomized clinical trial, genotype and treatment are independent by design.

CC[C@H](C)C(=O)O[C@H]1C[C@H](O)C=C2C=C[C@H](C)[C@H](CC[C@@H](O)C[C@@H](O)CC(=O)O)[C@H]21 [Pravastatin, pravastatin]
OR (rs9309988, Imputed, allele G, DOM model, WOSCOPS): 2.42 | OR (rs9309989, Genotyped, allele C, DOM model, WOSCOPS): 2.42 | OR (rs9310221, Imputed, allele A, DOM model, WOSCOPS): 1.531 | OR (rs9327555, Imputed, allele T, DOM model, WOSCOPS): 0.6021 | OR (rs9454967, Imputed, allele G, ADD model, WOSCOPS): 2.387 | OR (rs9454967, Imputed, allele G, DOM model, WOSCOPS): 2.904 | OR (rs9471295, Imputed, allele T, DOM model, WOSCOPS): 1.488 | OR (rs9477007, Imputed, allele A, ADD model, WOSCOPS): 1.357 | OR (rs9487279, Imputed, allele T, DOM model, WOSCOPS): 0.5667 | OR (rs9555973, Imputed, allele G, ADD model, WOSCOPS): 0.5702 | OR (rs9555973, Imputed, allele G, DOM model, WOSCOPS): 0.5463 | OR (rs9557510, Imputed, allele G, ADD model, WOSCOPS): 1.582 | OR (rs9557510, Imputed, allele G, DOM model, WOSCOPS): 1.775 | OR (rs9560584, Imputed, allele T, DOM model, WOSCOPS): 0.5572 | OR (rs9588770, Imputed, allele T, DOM model, WOSCOPS): 0.497 | OR (rs9588848, Imputed, allele C, ADD model, WOSCOPS): 0.5758 | OR (rs9588848, Imputed, allele C, DOM model, WOSCOPS): 0.554 | OR (rs9812206, Imputed, allele G, ADD model, WOSCOPS): 0.3883 | OR (rs9812206, Imputed, allele G, DOM model, WOSCOPS): 0.3876 | OR (rs9813552, Imputed, allele G, ADD model, WOSCOPS): 0.3826 | OR (rs9813552, Imputed, allele G, DOM model, WOSCOPS): 0.3816 | OR (rs9815037, Imputed, allele T, ADD model, WOSCOPS): 0.3819 | OR (rs9815037, Imputed, allele T, DOM model, WOSCOPS): 0.3809 | OR (rs9825349, Imputed, allele A, ADD model, WOSCOPS): 0.3819 | OR (rs9825349, Imputed, allele A, DOM model, WOSCOPS): 0.3809 | OR (rs9834217, Imputed, allele T, ADD model, WOSCOPS): 0.3819 | OR (rs9834217, Imputed, allele T, DOM model, WOSCOPS): 0.3809 | OR (rs9840460, Imputed, allele T, ADD model, WOSCOPS): 0.3819 | OR (rs9840460, Imputed, allele T, DOM model, WOSCOPS): 0.3809 | OR (rs9840756, Imputed, allele A, ADD model, WOSCOPS): 0.3808 | OR (rs9840756, Imputed, allele A, DOM model, WOSCOPS): 0.3798 | OR (rs9844801, Imputed, allele C, DOM model, WOSCOPS): 2.42 | OR (rs9869187, Imputed, allele C, ADD model, WOSCOPS): 0.4258 | OR (rs9869187, Imputed, allele C, DOM model, WOSCOPS): 0.4271 | OR (rs9872327, Imputed, allele T, DOM model, WOSCOPS): 2.42 | OR (rs9881685, Imputed, allele A, ADD model, WOSCOPS): 0.377 | OR (rs9881685, Imputed, allele A, DOM model, WOSCOPS): 0.3761 | OR (rs9909499, Imputed, allele C, DOM model, WOSCOPS): 1.559 | OR (rs9911847, Imputed, allele G, DOM model, WOSCOPS): 0.6877 | OR (rs9946886, Imputed, allele G, REC model, WOSCOPS): 0.3262 | OR (rs9958823, Imputed, allele A, ADD model, WOSCOPS): 1.444 | OR (rs9965248, Imputed, allele T, ADD model, WOSCOPS): 1.399 | OR (rs10941126 allele G, DOM model, Imputed, WOSCOPS): 0.309 | OR (rs10947980 allele G, ADD model, Imputed, WOSCOPS): 0.6089 | OR (rs11059376 allele T, ADD model, Imputed, WOSCOPS): 1.592 | OR (rs11072995 allele T, REC model, Imputed, WOSCOPS): 2.796 | OR (rs11081202 allele G, REC model, Genotyped, WOSCOPS): 2.426 | OR (rs11124962 allele A, DOM model, Imputed, WOSCOPS): 1.812 | OR (rs11178531 allele A, ADD model, Imputed, WOSCOPS): 0.7781 | OR (rs11178531 allele A, DOM model, Imputed, WOSCOPS): 0.6138 | OR (rs11178583 allele A, ADD model, Imputed, WOSCOPS): 0.6776 | OR (rs11178583 allele A, DOM model, Imputed, WOSCOPS): 0.6103 | OR (rs11178589 allele T, ADD model, Imputed, WOSCOPS): 0.6759 | OR (rs11178589 allele T, DOM model, Imputed, WOSCOPS): 0.6066 | OR (rs11178594 allele C, ADD model, Imputed, WOSCOPS): 0.6841 | OR (rs11178594 allele C, DOM model, Imputed, WOSCOPS): 0.62 | OR (rs11178602 allele T, ADD model, Imputed, WOSCOPS): 0.6841 | OR (rs11178602 allele T, DOM model, Imputed, WOSCOPS): 0.62 | OR (rs11178648 allele T, ADD model, Imputed, WOSCOPS): 0.6858 | OR (rs11178648 allele T, DOM model, Imputed, WOSCOPS): 0.6021 | OR (rs11198877 allele T, DOM model, Imputed, WOSCOPS): 1.444 | OR (rs11198942 allele T, DOM model, Imputed, WOSCOPS): 1.458 | OR (rs11221075 allele A, ADD model, Imputed, WOSCOPS): 0.7175 | OR (rs11242020 allele T, DOM model, Imputed, WOSCOPS): 0.7107 | OR (rs11242021 allele T, DOM model, Imputed, WOSCOPS): 0.6887 | OR (rs11242022 allele T, DOM model, Imputed, WOSCOPS): 0.6944 | OR (rs11242023 allele T, DOM model, Imputed, WOSCOPS): 0.6944 | OR (rs11576627 allele T, ADD model, Imputed, WOSCOPS): 1.4 | OR (rs11576627 allele T, DOM model, Imputed, WOSCOPS): 1.426 | OR (rs11630050 allele G, REC model, Imputed, WOSCOPS): 2.977 | OR (rs11633024 allele C, REC model, Imputed, WOSCOPS): 2.977 | OR (rs11636298 allele G, REC model, Imputed, WOSCOPS): 3.183 | OR (rs11637363 allele C, REC model, Imputed, WOSCOPS): 2.964 | OR (rs11637813 allele A, REC model, Imputed, WOSCOPS): 2.977 | OR (rs11638043 allele C, REC model, Imputed, WOSCOPS): 2.964 | OR (rs11638115 allele A, REC model, Imputed, WOSCOPS): 2.796 | OR (rs11682946 allele A, ADD model, Imputed, WOSCOPS): 5.356 | OR (rs11682946 allele A, DOM model, Imputed, WOSCOPS): 5.538 | OR (rs11717157 allele T, ADD model, Imputed, WOSCOPS): 1.45 | OR (rs11724055 allele A, DOM model, Imputed, WOSCOPS): 0.7804 | OR (rs11743355 allele C, ADD model, Imputed, WOSCOPS): 0.309 | OR (rs11743355 allele C, DOM model, Imputed, WOSCOPS): 0.309 | OR (rs11746806 allele T, ADD model, Imputed, WOSCOPS): 0.309 | OR (rs11746806 allele T, DOM model, Imputed, WOSCOPS): 0.309 | OR (rs11746959 allele T, ADD model, Imputed, WOSCOPS): 0.309 | OR (rs11746959 allele T, DOM model, Imputed, WOSCOPS): 0.309 | OR (rs11749272 allele T, DOM model, Imputed, WOSCOPS): 0.7035 | OR (rs11853619 allele C, REC model, Imputed, WOSCOPS): 3.183 | OR (rs11856780 allele A, REC model, Imputed, WOSCOPS): 3.183 | OR (rs11901899 allele A, DOM model, Imputed, WOSCOPS): 1.822 | OR (rs11903290 allele C, REC model, Imputed, WOSCOPS): 1.901 | OR (rs11909480 allele G, ADD model, Imputed, WOSCOPS): 0.5964 | OR (rs11909480 allele G, DOM model, Imputed, WOSCOPS): 0.61 | OR (rs11910289 allele T, ADD model, Imputed, WOSCOPS): 2.254 | OR (rs11910289 allele T, DOM model, Imputed, WOSCOPS): 2.226 | OR (rs11926319 allele G, DOM model, Imputed, WOSCOPS): 0.5229 | OR (rs11933744 allele T, REC model, Imputed, WOSCOPS): 3.01 | OR (rs11934919 allele C, REC model, Imputed, WOSCOPS): 3.01 | OR (rs11934957 allele C, REC model, Imputed, WOSCOPS): 3.01 | OR (rs16938626 allele G, DOM model, Imputed): 0.6482 | OR (rs16964300 allele G, ADD model, Imputed): 0.6489 | OR (rs16964300 allele G, DOM model, Imputed): 0.5081 | OR (rs16986282 allele G, DOM model, Imputed): 0.6518 | OR (rs17007620 allele G, ADD model, Imputed): 1.684 | OR (rs17007620 allele G, DOM model, Imputed): 1.898 | OR (rs17014326 allele G, DOM model, Imputed): 0.6773 | OR (rs17047957 allele C, DOM model, Imputed): 1.575 | OR (rs17073341 allele A, ADD model, Imputed): 1.335 | OR (rs17073341 allele A, DOM model, Imputed): 1.335 | OR (rs17138702 allele G, ADD model, Imputed): 0.7112 | OR (rs17189710 allele T, ADD model, Imputed): 1.407 | OR (rs17189710 allele T, REC model, Imputed): 1.414 | OR (rs17310176 allele T, ADD model, Imputed): 0.8153 | OR (rs17310176 allele T, DOM model, Imputed): 0.8122 | OR (rs17358860 allele A, DOM model, Imputed): 0.7804 | OR (rs17370541 allele T, REC model, Imputed): 1.782 | OR (rs17530747 allele T, DOM model, Imputed): 0.7249 | OR (rs17649114 allele C, DOM model, Imputed): 1.27 | OR (rs17766172 allele A, REC model, Imputed): 0.6013
